For assay [1], the target named is T1, TOPK (endogenous, MGC803 cells) (human (endogenous in MGC803)) (UniProt Q96KB5).
T1 sequence: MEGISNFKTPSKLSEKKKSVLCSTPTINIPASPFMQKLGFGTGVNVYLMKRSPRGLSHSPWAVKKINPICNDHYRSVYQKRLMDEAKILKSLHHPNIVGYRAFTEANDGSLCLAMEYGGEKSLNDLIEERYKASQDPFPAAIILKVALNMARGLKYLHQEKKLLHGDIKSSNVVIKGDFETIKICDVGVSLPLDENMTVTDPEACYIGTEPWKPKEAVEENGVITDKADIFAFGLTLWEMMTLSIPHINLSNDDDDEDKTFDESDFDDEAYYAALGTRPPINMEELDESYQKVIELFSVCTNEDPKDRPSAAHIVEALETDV
Kind of assay: co-IP; immunoprecipitation with anti-TOPK antibody from MGC803 cells, endogenous proteins; CoIP kit (Thermo Fisher 26147).

Amino acid sequences for entries named in this document (tags omitted).
UniProt P06241: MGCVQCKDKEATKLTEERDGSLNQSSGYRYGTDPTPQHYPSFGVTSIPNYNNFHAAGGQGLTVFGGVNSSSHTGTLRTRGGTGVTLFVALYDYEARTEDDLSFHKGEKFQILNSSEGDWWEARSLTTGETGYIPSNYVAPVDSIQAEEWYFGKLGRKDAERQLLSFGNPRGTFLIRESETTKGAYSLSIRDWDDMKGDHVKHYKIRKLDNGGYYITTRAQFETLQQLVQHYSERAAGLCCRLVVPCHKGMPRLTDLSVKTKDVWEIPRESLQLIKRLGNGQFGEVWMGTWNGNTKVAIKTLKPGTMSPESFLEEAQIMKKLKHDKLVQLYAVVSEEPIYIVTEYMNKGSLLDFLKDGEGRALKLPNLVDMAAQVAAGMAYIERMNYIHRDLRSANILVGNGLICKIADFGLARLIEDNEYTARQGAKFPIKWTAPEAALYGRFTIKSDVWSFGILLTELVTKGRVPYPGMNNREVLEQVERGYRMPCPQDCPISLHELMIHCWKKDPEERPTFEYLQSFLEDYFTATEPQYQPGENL

Assay [2] has as its target T2, His-TOPK (T-LAK cell-originated protein kinase, wild type) (UniProt Q96KB5).
T2 sequence: T1 sequence
Kind of assay: pull-down; His-TOPK held on Ni-NTA agarose, incubated with lysate of MGC803 cells (FYN high expression cell line); endogenous FYN detected; only the target purified.

No constants are given. Whether binding was seen depends on the method and setting. In cells and extracts the contact can be indirect. Some binding calls cover weakened binding; strength is not graded here. For some assays here: Sequences can lack the tags named with a protein.

“FYN (endogenous, MGC803 cells) (from UniProt P06241 1-537) (enzyme)”: the binding result in assay [1] and in assay [2] was “binds” throughout.

Values taken from publication PMC10071617.
